Test results reported in article PMC10008561.
Results are given in words; binding and its absence hold for the method and conditions named. Binding seen in cells or lysates may run through a third protein. Some binding calls cover weakened binding; strength is not graded here.

By UniProt entry, the sequences of proteins in these tests, tags left out.
UniProt P41145: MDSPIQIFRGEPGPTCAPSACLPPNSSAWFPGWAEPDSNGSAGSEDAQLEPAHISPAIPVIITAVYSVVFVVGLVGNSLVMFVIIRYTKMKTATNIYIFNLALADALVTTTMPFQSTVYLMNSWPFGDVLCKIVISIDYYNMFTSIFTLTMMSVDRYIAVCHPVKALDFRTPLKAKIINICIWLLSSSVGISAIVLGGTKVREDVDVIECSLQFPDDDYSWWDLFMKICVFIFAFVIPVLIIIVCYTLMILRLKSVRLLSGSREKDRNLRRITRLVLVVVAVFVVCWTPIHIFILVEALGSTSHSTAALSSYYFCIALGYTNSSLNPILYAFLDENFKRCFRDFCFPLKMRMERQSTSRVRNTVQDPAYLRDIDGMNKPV
UniProt P32121: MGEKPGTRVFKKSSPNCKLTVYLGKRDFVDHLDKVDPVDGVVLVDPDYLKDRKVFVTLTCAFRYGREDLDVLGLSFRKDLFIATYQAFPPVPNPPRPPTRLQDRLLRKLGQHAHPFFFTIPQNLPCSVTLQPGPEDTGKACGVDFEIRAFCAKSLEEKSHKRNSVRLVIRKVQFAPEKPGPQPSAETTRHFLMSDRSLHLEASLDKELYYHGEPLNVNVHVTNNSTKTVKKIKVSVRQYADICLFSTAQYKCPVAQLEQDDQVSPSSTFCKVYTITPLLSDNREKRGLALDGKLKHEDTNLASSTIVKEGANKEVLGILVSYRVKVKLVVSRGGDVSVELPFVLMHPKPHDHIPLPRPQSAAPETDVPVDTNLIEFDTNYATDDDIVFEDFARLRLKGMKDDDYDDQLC

Molecular target: human KOR fused with Renilla luciferase at the C-terminus (KOR-RLuc8) (human) (UniProt P41145)
Assay: FRET or BRET; BRET1 arrestin recruitment in HEK293T cells co-transfected 1:5 with KOR-RLuc8 and mVenus-β-arrestin 1 or 2; coelenterazine h; agonist (U50,488, nalfurafine, WMS-X600) added for 5 min at room temperature

- binding: binds
Substance: β-arrestin 2 fused with mVenus at the N-terminus (mVenus-βarrestin 2) (from UniProt P32121 1-409)
